This passage reports survivor count and T/C results from PubChem BioAssay AID248 (DTP/NCI, 2004).

For this assay, the system named is L1210 leukemia ip in BDF1 mice, survival T/C. The experiment in a line: NCI In Vivo Anticancer Drug Screen. Data for tumor model L1210 Leukemia (intraperitoneal) in B6D2F1 (BDF1) mice. The note with it: T/C endpoint: mean survival time, higher T/C = longer survival.
Where [1] appears, read: dose: 25.0 mg/kg/injection, schedule: Q04DX003 (ip), vehicle: Klucel (hydroxypropylcellulose) (HPC).
The mark [2] stands for this setting: dose: 50.0 mg/kg/injection, schedule: Q04DX003 (ip), vehicle: Klucel (hydroxypropylcellulose) (HPC).
Where [3] appears, read: dose: 100.0 mg/kg/injection, schedule: Q04DX003 (ip), vehicle: Klucel (hydroxypropylcellulose) (HPC).
[4] abbreviates: dose: 200.0 mg/kg/injection, schedule: Q04DX003 (ip), vehicle: Klucel (hydroxypropylcellulose) (HPC).
Setting [5] is: dose: 400.0 mg/kg/injection, schedule: Q04DX003 (ip), vehicle: Klucel (hydroxypropylcellulose) (HPC).
[6] abbreviates: dose: 400.0 mg/kg/injection, schedule: Q04DX003 (ip), vehicle: saline with Tween-80.
Where [7] appears, read: dose: 200.0 mg/kg/injection, schedule: Q01DX009 (ip), vehicle: Klucel (hydroxypropylcellulose) (HPC).
The mark [8] stands for this setting: dose: 400.0 mg/kg/injection, schedule: Q01DX009 (ip), vehicle: saline with Tween-80.
The mark [9] stands for this setting: dose: 150.0 mg/kg/injection, schedule: Q04DX003 (ip), vehicle: Klucel (hydroxypropylcellulose) (HPC).
Where [10] appears, read: dose: 200.0 mg/kg/injection, schedule: Q04DX002 (ip), vehicle: Klucel (hydroxypropylcellulose) (HPC).

The list shows only some results of the screen, not a fair sample: it is rich in T/C values a quarter to a half above the control, in often repeated tests (any T/C) and in doses without a T/C. Further doses and runs are listed elsewhere. T/C gives the treated animals as a percentage of the vehicle group. Some doses have a count of surviving animals in place of a T/C: the source files T/C as zero there, which appears to mark a toxic dose or a test without result, not a measured value. Some survivor counts are full or nearly so, which does not show that the dose was tolerated: the source hardly ever lists a survival T/C far under the control, and the zero likely stands for such cases as well. Survivors were counted at the toxicity check, usually on the fifth day, unless a day is given; later deaths do not show. Schedule codes are those of the source, read here as Q, the interval in days (D) or hours (H), X, the number of doses. Some structures stand for samples that the source files as different forms (salt, stereo form or complex); doses refer to the form tested. Some entries were tested several times; the results are listed from low to high. For survival time, the PubChem record calls one and a half times the control and up active, and a quarter to a half above the control has no call in these data; cut-offs in other NCI protocols can differ. Some T/C values carry the count of animals alive at the toxicity check (mostly the fifth day); without a count, all were alive then.

On to `Cc1cc(C)c(C(=O)O)c(C)c1.[Hg]`, for which the survivor count is, setting by setting: under setting [1], 2 of 6; under setting [2], 1 of 6; under setting [3], 6 of 6; under setting [4], 6 of 6; under setting [5], 6 of 6.
Consider `O=C(C(Sc1ccccc1)=P(c1ccccc1)(c1ccccc1)c1ccccc1)c1ccccc1`, for which the survivor count under setting [6] is listed as 6 of 6.
For the compound `O=C(NC1CSSC1)C(Cc1ccccc1)N1C(=O)c2ccccc2C1=O` (stereo unspecified), the survivor count (dose: 25.0 mg/kg/injection, schedule: Q01DX009 (ip), vehicle: water) is on record as 2 of 6.
Turning to `N#CC(C#N)=c1ccc(=C(C#N)C#N)cc1`, the survivor count (dose: 400.0 mg/kg/injection, schedule: Q01DX001 (ip), vehicle: saline) is recorded as 1 of 4.
For `O=[N+]([O-])c1ccc(S(=O)[O-])cc1.O=[N+]([O-])c1ccc(S(=O)[O-])cc1.[Zn+2]`, the survivor count (dose: 300.0 mg/kg/injection, schedule: Q01DX001 (ip), vehicle: saline) is 0 of 6.
Turning to `COc1ccc(Cc2ccc(OC)c(OC)c2)cc1OC`, under “dose: 100.0 mg/kg/injection, schedule: Q04DX003 (ip), vehicle: acetone”, the T/C is 127 % of control.
Take `CC(=O)OC1CCC2(C)C(CCC3C2CCC2(C)C3CC3OC(CCCC(C)CO)C(C)C32)C1` (stereo unspecified): the survivor count (dose: 100.0 mg/kg/injection, schedule: Q01DX001 (ip), vehicle: saline with Tween-80) is reported as 3 of 3 and the survivor count (dose: 200.0 mg/kg/injection, schedule: Q01DX001 (ip), vehicle: saline with Tween-80) is 3 of 3.
As to `NC(=S)Nc1c(Cl)cc(Cl)cc1Cl`, the survivor count is on record as 3 of 6 under setting [7] and 0 of 6 (dose: 400.0 mg/kg/injection, schedule: Q01DX009 (ip), vehicle: Klucel (hydroxypropylcellulose) (HPC)).
Turning to `ON=C(c1ccccc1)c1ccccc1`, the survivor count under setting [8] is 0 of 6.
`C#CCN(C)/N=N/c1nc[nH]c1C(N)=O`: the T/C is, setting by setting: (dose: 60.0 mg/kg/injection, schedule: Q01DX009 (ip), vehicle: Klucel (hydroxypropylcellulose) (HPC)) 141 % of control; (dose: 100.0 mg/kg/injection, schedule: Q01DX009 (ip), vehicle: Klucel (hydroxypropylcellulose) (HPC)) 141 % of control; under setting [9], 135 % of control; under setting [7], 146 % of control; under setting [4], 138 % of control. In addition, the survivor count by setting is: under setting [9], 6 of 6; (dose: 300.0 mg/kg/injection, schedule: Q01DX009 (ip), vehicle: Klucel (hydroxypropylcellulose) (HPC)) 2 of 6; (dose: 300.0 mg/kg/injection, schedule: Q04DX003 (ip), vehicle: Klucel (hydroxypropylcellulose) (HPC)) 3 of 6 and 6 of 6; (dose: 500.0 mg/kg/injection, schedule: Q04DX003 (ip), vehicle: Klucel (hydroxypropylcellulose) (HPC)) 0 of 6; (dose: 600.0 mg/kg/injection, schedule: Q04DX003 (ip), vehicle: Klucel (hydroxypropylcellulose) (HPC)) 1 of 6.
Take `Cc1cc(OC(=O)c2ccc(N)cc2)ccc1C1=NCC(C)S1` (stereo unspecified): the survivor count was 3 of 3 (dose: 100.0 mg/kg/injection, schedule: Q04DX002 (ip), vehicle: DMSO); 3 of 3 (dose: 200.0 mg/kg/injection, schedule: Q04DX002 (ip), vehicle: DMSO); 2 of 3 (dose: 400.0 mg/kg/injection, schedule: Q04DX002 (ip), vehicle: DMSO).
On to `O=c1[nH][nH]c(=O)n1O`, for which the survivor count (dose: 200.0 mg/kg/injection, schedule: Q01DX009 (ip), vehicle: acetone) was 6 of 6 and the survivor count under setting [8] was 6 of 6.
Regarding `CCC(C)C(NN)C(=O)O` (stereo unspecified), the T/C (dose: 150.0 mg/kg/injection, schedule: Q01DX015 (ip), vehicle: carboxymethylcellulose (CMC)) is 128 % of control [5 of 6 alive]. Also, the survivor count (dose: 250.0 mg/kg/injection, schedule: Q01DX015 (ip), vehicle: carboxymethylcellulose (CMC)) is 3 of 6.
`Nc1nc2c(c(=O)[nH]1)N=C(CNc1ccc(C(=O)NC(CCC(=O)O)C(=O)O)cc1)CN2` (stereo unspecified): the T/C (dose: 1.0 mg/kg/injection, schedule: Q01DX009 (ip), vehicle: sodium bicarbonate) is 130 % of control.
Consider `CC(C)Nc1nc(Cl)nc(NC(C)C)n1`, for which the survivor count under setting [3] is recorded as 0 of 6.
As to `NC(CSS(=O)(=O)O)=NCC1CC2CCC1C2` (stereo unspecified), the survivor count runs as follows: (dose: 100.0 mg/kg/injection, schedule: Q04DX002 (ip), vehicle: saline with Tween-80) 0 of 3; (dose: 200.0 mg/kg/injection, schedule: Q04DX002 (ip), vehicle: saline with Tween-80) 0 of 3; (dose: 400.0 mg/kg/injection, schedule: Q04DX002 (ip), vehicle: saline with Tween-80) 0 of 3.
Take `O=C(CCl)N(c1ccccc1)c1ccccc1`: the survivor count runs as follows: (dose: 50.0 mg/kg/injection, schedule: Q04DX002 (ip), vehicle: Klucel (hydroxypropylcellulose) (HPC)) 2 of 3; (dose: 100.0 mg/kg/injection, schedule: Q04DX002 (ip), vehicle: Klucel (hydroxypropylcellulose) (HPC)) 3 of 3; under setting [10], 0 of 3; (dose: 400.0 mg/kg/injection, schedule: Q04DX002 (ip), vehicle: Klucel (hydroxypropylcellulose) (HPC)) 0 of 3.
With `CCOC(=O)C1CC(=O)c2cc(OC)c(OC)cc2C1c1ccc(OC)c(OC)c1` (stereo unspecified), the survivor count (dose: 400.0 mg/kg/injection, schedule: Q01DX001 (ip), vehicle: carboxymethylcellulose (CMC)) is reported as 6 of 6.
Regarding `O=C1NC2CCC(NC(=O)N1c1ccccc1)C1=C2C1`, the survivor count by setting is: (dose: 25.0 mg/kg/injection, schedule: Q04DX003 (ip), vehicle: saline with Tween-80) 5 of 6; (dose: 100.0 mg/kg/injection, schedule: Q04DX003 (ip), vehicle: saline with Tween-80) 3 of 6; (dose: 200.0 mg/kg/injection, schedule: Q04DX003 (ip), vehicle: saline with Tween-80) 0 of 6; under setting [6], 0 of 6.
Consider `CSC(=NC#N)SC`, for which the survivor count is, setting by setting: (dose: 12.5 mg/kg/injection, schedule: Q04DX003 (ip), vehicle: Klucel (hydroxypropylcellulose) (HPC)) 3 of 6; under setting [1], 1 of 6; under setting [2], 0 of 6; under setting [3], 0 of 6; under setting [4], 0 of 6; under setting [5], 0 of 6.
`CC(=O)NCC[N+](C)(C)C`: the survivor count is listed as 6 of 6 (dose: 200.0 mg/kg/injection, schedule: Q04DX003 (ip), vehicle: saline) and 0 of 6 (dose: 400.0 mg/kg/injection, schedule: Q04DX003 (ip), vehicle: saline).
Regarding `Cc1ccc(S(=O)(=O)OCC(COS(=O)(=O)c2ccc(C)cc2)(COS(=O)(=O)c2ccc(C)cc2)COS(=O)(=O)c2ccc(C)cc2)cc1`, under setting [10], the survivor count was 1 of 3.
As to `CC(=O)Oc1ccc(C)cc1`, the survivor count under setting [5] is given as 5 of 6.
